Laboratory results published in publication doi:10.1101/2020.04.09.033597.
These are yes or no findings as the source states them, for the method shown. Binding seen in cells or lysates may run through a third protein. Some binding calls cover weakened binding; strength is not graded here.

The chains behind the UniProt entries cited, without tags or fusion partners. Where a name states a change or a piece, a line headed by the entry shows the natural chain unless it says otherwise. Residues count along the entry.
UniProt Q7Z434: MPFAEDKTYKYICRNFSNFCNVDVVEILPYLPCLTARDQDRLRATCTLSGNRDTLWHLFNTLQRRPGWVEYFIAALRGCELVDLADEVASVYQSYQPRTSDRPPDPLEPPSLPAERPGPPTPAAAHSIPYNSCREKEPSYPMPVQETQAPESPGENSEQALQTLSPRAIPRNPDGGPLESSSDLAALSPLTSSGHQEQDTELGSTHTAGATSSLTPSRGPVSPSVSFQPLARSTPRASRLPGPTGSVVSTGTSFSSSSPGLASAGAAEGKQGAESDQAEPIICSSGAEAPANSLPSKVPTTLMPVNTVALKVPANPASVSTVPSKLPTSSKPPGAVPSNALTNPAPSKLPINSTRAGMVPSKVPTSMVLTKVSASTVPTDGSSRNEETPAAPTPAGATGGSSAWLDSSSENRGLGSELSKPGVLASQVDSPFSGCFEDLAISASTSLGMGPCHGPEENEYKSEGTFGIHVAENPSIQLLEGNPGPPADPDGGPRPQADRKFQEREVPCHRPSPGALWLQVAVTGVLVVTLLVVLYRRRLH
Myc-IPS-1 (amino acids 1-98), fragment containing CARD: residues 1-98 of Q7Z434
Myc-IPS-1 (amino acids 99-200), fragment containing the proline-rich domain: residues 99-200 of Q7Z434
Myc-IPS-1 (amino acids 201-540), fragment containing the COOH-terminal domain including the TM domain: residues 201-540 of Q7Z434
UniProt Q9CQF3: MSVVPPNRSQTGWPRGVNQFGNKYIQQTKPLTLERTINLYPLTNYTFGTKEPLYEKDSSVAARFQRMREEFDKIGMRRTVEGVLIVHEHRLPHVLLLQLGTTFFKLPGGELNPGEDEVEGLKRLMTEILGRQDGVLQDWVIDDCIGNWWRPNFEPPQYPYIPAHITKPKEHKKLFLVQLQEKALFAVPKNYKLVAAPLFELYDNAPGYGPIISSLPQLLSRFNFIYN

How the values were obtained:
Assay in all cases: co-IP
[1] = target: FLAG epitope-tagged IPS-1 (WT human IPS-1, pEF-BOS-FLAG-IPS-1) (human) (UniProt Q7Z434)
[2] = target: Myc-IPS-1 (amino acids 1-98), fragment containing CARD (human) (UniProt Q7Z434)
[3] = target: Myc-IPS-1 (amino acids 201-540), fragment containing the COOH-terminal domain including the TM domain (human) (UniProt Q7Z434)
[4] = target: Myc-IPS-1 (amino acids 99-200), fragment containing the proline-rich domain (human) (UniProt Q7Z434)

Substance: Myc epitope-tagged NUDT21 (from UniProt Q9CQF3 1-227)
- binding [1]: binds

Substance: hemagglutinin epitope (HA)-tagged NUDT21 (from UniProt Q9CQF3 1-227)
- binding [2]: binds
- binding [3]: no binding
- binding [4]: binds
